Measured values taken from PubChem BioAssay AID1347076 (National Center for Advancing Translational Sciences (NCATS), 2019).
Hit rate of the full screen: of about 400,000 compounds, about 13,000 (3.2%) were called active. This list was built around the results that the source calls inconclusive (neither active nor inactive); the mix of calls is not that of the screen. The call rests on the fitted dose curve; in most records, active means well fitted cell-killing curve with a large enough effect; inconclusive means small, poorly fitted or top-dose-only effect, or effect the other way; inactive means flat fitted curve, though single readings scatter. A potency beside an inconclusive call is a rough fit, not a confirmed value.

Test: qHTS assay for MDR1-selective chemotherapeutics: Primary screen using the drug-selected MDR subline cells KB-V1; further: nearly all actives have a fitted effect of over 60% in size
Conditions: KB-V1 MDR cells viability, CellTiter-Glo, 72 h; activity change, negative = cytotoxicity: at 46.1 µM (top of the series)
Procedure, shortened: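 Cytotoxicity via CellTiter-Glo luminescence after 72 h compound exposure at 37 degrees C. Cells: drug-selected KB-V1 line, DMEM phenol-red free plus 10% FBS. Compounds tested at multiple concentrations; normalized data fitted to concentration-effect curves.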
On the % scale 0 is the no-effect control and ±100 the full control effect; potency means the concentration at half of the fitted maximal effect.

SMILES	activity change, negative = cytotoxicity	Potency
Cc1cccc(C)c1NC(=O)Nc1nc(CN(C)C)cs1	inactive: 6.11%	–
CCOC(=O)c1c(-c2ccccc2Cl)csc1NC(=O)c1cc(S(=O)(=O)N2CCOCC2)ccc1C	–	active: 10.3 µM
O=C(O)c1cc(-c2ccco2)nc2ccccc12	–	inconclusive: 29.1 µM [rising, single point]
Cc1ccc(S(=O)(=O)N2CCC(C(=O)Nc3ccc(Oc4ccccc4)cc3)CC2)cc1	–	inconclusive: 29.1 µM [rising, single point]
CCOc1cc(C(=O)NC(=S)Nc2cccnc2)cc(OCC)c1OCC	–	inconclusive: 0.206 µM [cytotoxic, full curve]
CN(CC(=O)Nc1ccccc1Cl)C(=O)COC(=O)c1nc(Cl)c(Cl)c(Cl)c1Cl	inactive: -4.14%	–
O=C(NCc1nnnn1-c1ccc(Cl)cc1)c1ccc2c(c1)OCO2	inactive: -9.69%	–
CCOc1cc(N2CCOCC2)c(OCC)cc1NC(=O)CSc1nc(N)cc(=O)[nH]1	–	inconclusive: 29.1 µM [rising, single point]
NC(Cc1ccccc1)c1csc(Nc2nncc3ccccc23)n1 (configuration not stated)	–	active: 23.1 µM
Cc1cc(C)cc(NC(=O)CN2C(=O)CCc3cc(S(=O)(=O)N4CCCCC4)ccc32)c1	–	inconclusive: 20.6 µM [cytotoxic, single point]
Cc1ccc(CN2[C@H](C)[C@H](c3ccccc3)OCCS2(=O)=O)cc1	–	active: 16.4 µM
COc1ccc(C(C)C)cc1S(=O)(=O)N1CCC(C(=O)NCC2CCCO2)CC1 (configuration not stated)	inactive: 1.36%	–
CNc1ncnc(Sc2nc(N)nc3nc[nH]c23)c1[N+](=O)[O-]	–	active: 1.03 µM
O=C(Nc1ccc(N2CCOCC2)c(Cl)c1)c1ccc(Br)o1	–	inconclusive: 22.4 µM [cytotoxic, single point]
Cc1ccc(-c2nnc(COC(=O)c3cc(=O)[nH]c4ccccc34)o2)cc1	inactive: 0%	–
CCN1CCN(C(=O)CCN2C(=O)c3ccccc3S2(=O)=O)CC1	–	inconclusive: 29.1 µM [rising, single point]
N#CCC1c2ccccc2CCN1C(=O)Nc1cccc(Cl)c1 (configuration not stated)	–	active: 16.4 µM
O=C(O)CCCC(=O)N1CCN(c2nc(-c3ccccc3Cl)c3cc(Br)ccc3n2)CC1	inactive: 13.3%	–
O=C(NC1CCN(Cc2ccccc2)CC1)c1ccc(S(=O)(=O)NCc2ccco2)cc1	–	inconclusive: 10.3 µM [cytotoxic, partial curve]
CC(=O)Nc1cccc(NC(=O)C(=O)NCCc2csc3nc(-c4ccccc4F)nn23)c1	inactive: -2.72%	–
Nc1[nH]c(C(=O)c2ccccc2)c(-c2ccc(C(F)(F)F)cc2)c1C(=O)NCc1ccc(Cl)cc1Cl	inactive: 0%	–
CC1(C(=O)NS(=O)(=O)c2ccccc2Cl)CCN1C(=O)c1ccco1 (configuration not stated)	inactive: 1.63%	–
Cc1cc(Cl)ccc1NC(=O)c1cc2ccccn2n1	inactive: -29.4%	–
NS(=O)(=O)c1ccc(CCNc2nc(C(F)(F)F)nc3ccccc23)cc1	–	inconclusive: 0.651 µM [cytotoxic, full curve]

Entries of single compounds from above. Values in the order: activity change, negative = cytotoxicity	Potency
Cc1ccc(CN2[C@H](C)[C@H](c3ccccc3)OCCS2(=O)=O)cc1 in the list: –	active: 16.4 µM
CCOc1cc(C(=O)NC(=S)Nc2cccnc2)cc(OCC)c1OCC in the list: –	inconclusive: 0.206 µM [cytotoxic, full curve]
N#CCC1c2ccccc2CCN1C(=O)Nc1cccc(Cl)c1 (configuration not stated) in the list: –	active: 16.4 µM

Next results follow:

SMILES	activity change, negative = cytotoxicity	Potency
CN(C)c1ccc(P(=O)(OCc2ccccc2)C(O)c2ccncc2)cc1 (configuration not stated)	–	inconclusive: 16.4 µM [cytotoxic, single point]
CCC(c1nnnn1CCOC)N1CCN(C(=O)c2ccco2)CC1 (configuration not stated)	–	inconclusive: 25.9 µM [cytotoxic, partial curve, poor fit]
COC(=O)c1ccc(C2c3[nH]c4ccccc4c3C[C@H]3C(=O)N(C4CC4)CC(=O)N23)cc1 (some centres not stated)	–	inconclusive: 29.1 µM [cytotoxic, single point]
CCOCCCNC(=O)C1(O)c2ccccc2NC(=O)N1c1ccc(Cl)cc1 (configuration not stated)	inactive: 0.882%	–
COc1ccc(-c2csc(C(C)(O)c3ccccc3)n2)cc1OC (configuration not stated)	–	active: 23.1 µM
Cc1ccc(C(=O)N2c3ccccc3CC2C)o1 (configuration not stated)	–	inconclusive: 20.6 µM [cytotoxic, partial curve]
CC1CCCN(CCCOc2ccc(Cl)cc2Br)C1 (configuration not stated)	–	active: 16.4 µM
O=C(CCS(=O)(=O)c1ccc(Br)cc1)N1CCN(c2ccc(Cl)cc2)CC1	–	active: 5.8 µM
CC(C)CCNC(=O)c1cn(C)c2ccc(S(=O)(=O)N3CCOCC3)cc2c1=O	inactive: 1.17%	–
COCCCN1CCN(C2Cc3ccccc3Sc3ccc(Cl)cc32)CC1 (configuration not stated)	–	inconclusive: 23.1 µM [cytotoxic, partial curve, poor fit]
COc1cc(OC)c(NC(=O)c2c3c(nc4ccccc24)C(=O)N(C2CCCCC2)C3)cc1Cl	inactive: -19.3%	–
CCOc1ccc(NC(=O)CC2C(=O)N(c3cccc(OC)c3)C(=O)N2C(C)C)cc1 (configuration not stated)	–	inconclusive: 3.66 µM [rising, full curve, poor fit]
COc1cc2c(=O)c(S(=O)(=O)c3ccccc3)cn(CC(=O)Nc3ccccc3C)c2cc1OC	–	inconclusive: 23.1 µM [rising, single point]
CCCCOc1ccc(C(=O)N(CC)CC(=O)NCc2cccs2)cc1	–	inconclusive: 11.6 µM [cytotoxic, partial curve]
COc1ccc(C(=O)C[n+]2ccc3c(c2)nc(-c2ccc(OC)cc2OC)n3C)cc1	inactive: 26.8%	–
C[C@@H](CN=[N+]=[N-])CN1CC[C@H](NC(=O)OCc2ccccc2)CCC1=O	–	inactive
CC(C)OC(=O)C[N+](C)(C)CCN1C(=O)C2C(c3ccccc3)C=CC(c3ccccc3)C2C1=O (configuration not stated)	inactive: -18.1%	–
CCCCn1nnnc1C(c1ccccc1)N1CCN(c2ccc(C(F)(F)F)cc2[N+](=O)[O-])CC1 (configuration not stated)	–	inconclusive: 0.0092 µM [cytotoxic, full curve, poor fit]
O=C(NCC(c1ccco1)N1CCc2ccccc2C1)c1cccc([N+](=O)[O-])c1 (configuration not stated)	–	inconclusive: 5.8 µM [cytotoxic, full curve]
Cc1ccc(S(=O)(=O)N2CCN(c3nc(-c4ccc(CN5CCOCC5)s4)nc4ccccc34)CC2)cc1	–	inconclusive: 3.66 µM [cytotoxic, partial curve, poor fit]
CCc1cccc(NC(=O)CCS(=O)(=O)c2cc3c4c(c2)CCN4C(=O)CC3)c1	inactive: 0%	–
CCOC(=O)Cc1ccc(NC(=O)c2ccc(C(C)(C)C)cc2)cc1	–	inconclusive: 10.3 µM [cytotoxic, partial curve, poor fit]
COc1ccccc1N1CN(S(=O)(=O)c2ccc(C)cc2)c2nc3ccccc3nc21	inactive: -18.3%	–
Cc1cccc(C(=O)N/N=C/c2cc(Br)c(Br)o2)c1	–	inconclusive: 29.1 µM [cytotoxic, single point]

SMILES	activity change, negative = cytotoxicity	Potency
CCS(=O)(=O)N1CCc2cc(C(=O)Nc3ccc(OC)cc3OC)ccc21	inactive: -3.55%	–
COc1ccc(CNC(=O)CN2c3ccccc3S(=O)(=O)c3ccccc32)cc1	–	inconclusive: 0.259 µM [cytotoxic, full curve, poor fit]
O=C(N/N=C/c1ccc(N2CCOCC2)cc1)c1cccs1	inactive: 12%	–
CCN(CC)CCNC(=O)c1cc2c(=O)oc3ccc(C)cc3c2s1	–	inconclusive: 29.1 µM [rising, single point]
CCOc1ccccc1NC(=O)COC(=O)C(CC)c1ccccc1 (configuration not stated)	–	inconclusive: 29.1 µM [rising, single point]
CCc1nc(C)ccc1OCC(=O)O	–	inconclusive: 25.9 µM [rising, single point]
CC1(C(=O)NCc2ccccc2)Cc2c(-c3ccccc3)ccnc2O1 (configuration not stated)	–	inconclusive: 23.1 µM [cytotoxic, single point]
CCCn1c(NC(=O)C2CCN(C(=O)c3ccc(F)cc3)CC2)nc2ccccc21	–	inconclusive: 32.6 µM [cytotoxic, single point]
COc1ccccc1Nc1nc2c(s1)CCC2	inactive: -26.8%	–
N#CCN(N=Nc1ccccc1)c1ccccc1	inconclusive: 14.5%	–
O=C(O)C1CSC2(CCN(Cc3ccccc3)CC2)N1 (configuration not stated)	–	inconclusive: 11.2 µM [rising, partial curve, poor fit]
COc1ccc(C(=O)N/N=C/c2ccc(N(C)c3ccccc3)cc2)cc1	inactive: -9.71%	–
COc1ccc(-n2c(CCC(=O)O)ccc2-c2ccccc2)c(OC)c1	inactive: 3.37%	–
CN(C)CC/C=C1/c2ccccc2Sc2ccc(Cl)cc21	–	inconclusive: 18.4 µM [cytotoxic, single point]
CCC(=O)c1ccc(N2CCN(C(=O)c3ccc(Br)cc3)CC2)c(F)c1	–	active: 14.6 µM
CCOC(=O)C1=CN(Cc2cccc(-c3ccc(Cl)nc3)c2)S(=O)(=O)N(C)C1C (configuration not stated)	–	inconclusive: 25.9 µM [cytotoxic, single point]
CC(OC(=O)c1ccc2c(=O)n3c(nc2c1)CCC3)C(=O)Nc1ccc(C(N)=O)cc1 (configuration not stated)	–	inconclusive: 16.4 µM [rising, single point]
CC(C)CCNC(=O)C(CC(C)C)N(Cc1ccc2c(c1)OCO2)C(=O)c1snc(C(N)=O)c1N (configuration not stated)	–	inconclusive: 4.11 µM [cytotoxic, full curve]
CN=C1S/C(=C\c2ccc(N3CCOCC3)c(F)c2)C(=O)N1C	–	active: 16.4 µM
CC(C)(C)c1ccc(Cn2nnc3c(=O)[nH]c(C4CCCN(C(=O)Cc5cccs5)C4)nc32)cc1 (configuration not stated)	–	inconclusive: 16.4 µM [cytotoxic, single point]
COc1ccc2nc(NNC(=O)COc3ccccc3)sc2c1	–	inconclusive: 2.91 µM [cytotoxic, partial curve, poor fit]
O=C(C[C@H]1C[C@H](C(=O)N2CCCCC2)[C@@]2(CCc3ccccc3)c3[nH]c4ccc(Cl)cc4c3CCN2C1=O)NCCC1=CCCCC1	inactive: 0.0002%	–
COc1cc2[nH]c(=S)n(C3CCCC3)c(=O)c2cc1OC	–	inconclusive: 23.1 µM [cytotoxic, partial curve]
O=C(COc1ccccc1[N+](=O)[O-])Nc1ccc(N2CCN(C(=O)c3cccs3)CC2)cc1	–	active: 9.2 µM

Individual results from above.
COc1ccc(C(=O)N/N=C/c2ccc(N(C)c3ccccc3)cc2)cc1 | activity change, negative = cytotoxicity: inactive: -9.71%
O=C(COc1ccccc1[N+](=O)[O-])Nc1ccc(N2CCN(C(=O)c3cccs3)CC2)cc1 | Potency: active: 9.2 µM
